Results from PMC11720525.
These are yes or no findings as the source states them, for the method shown. Binding seen in cells or lysates may run through a third protein. Some results given as binding are weak or reduced against the parent protein; the word gives no strength. Blank lines part the entries; values can stand above or below the substance they belong to.

Amino acid sequences for entries named in this document (tags omitted).
UniProt P50135: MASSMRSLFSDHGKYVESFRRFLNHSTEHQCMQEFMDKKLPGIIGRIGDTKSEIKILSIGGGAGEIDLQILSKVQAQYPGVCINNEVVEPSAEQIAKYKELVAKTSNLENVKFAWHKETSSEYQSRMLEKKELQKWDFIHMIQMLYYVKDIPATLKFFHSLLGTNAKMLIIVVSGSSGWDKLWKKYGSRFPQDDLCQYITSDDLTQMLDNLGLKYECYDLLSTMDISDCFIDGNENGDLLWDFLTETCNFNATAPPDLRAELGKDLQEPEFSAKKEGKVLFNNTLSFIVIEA

Legend:
[1] = target: presenilin 2 (PS2) (human (endogenous in SKBR3)) (UniProt P49810); assay: FRET or BRET; acceptor-bleaching FRET on fixed cells (SKBR3, SK-HN, SK-Vc) stained with primary antibodies and fluorescent secondary antibodies; with or without EGF (100 ng/mL, 20 or 60 min) or NRG1
HER2-AmCyan (human) = HER2-AmCyan (human) (UniProt P04626); assay: FRET or BRET; live-cell FLIM-FRET in transfected SKBR3 cells; lifetime of the donor AmCyan by time-correlated single-photon counting; control and EGF-treated cells, 0, 5, 20, 60, 130 min
AmCyan-HER2 (human) = AmCyan-HER2 (human) (UniProt P04626); assay: as above
[2] = target: human epidermal growth factor receptor 2 (HER2) (human (endogenous in SKBR3 and in patients' tumour tissue)) (UniProt P04626); assay: co-IP; 500 ug of cell lysate with primary antibody or normal rabbit IgG, protein G agarose, four PBS washes, western blot; SKBR3 treated with EGF (100 ng/mL; 0, 20, 50 min), and SK-Vc, SK-HN, SK-Sc, SK-Si lysates precipitated for HNMT
[3] = target: HER1 (EGFR) (human (endogenous in SKBR3)) (UniProt P00533); assay: FRET or BRET; acceptor-bleaching FRET on fixed cells (SKBR3, SK-HN, SK-Vc) stained with primary antibodies and fluorescent secondary antibodies; with or without EGF (100 ng/mL, 20 or 60 min) or NRG1
[4] = target: human epidermal growth factor receptor 2 (HER2) (human (endogenous in SKBR3 and in patients' tumour tissue)) (UniProt P04626); assay: as above
[5] = target: human epidermal growth factor receptor 2 (HER2) (human (endogenous in SKBR3 and in patients' tumour tissue)) (UniProt P04626); assay: FRET or BRET; acceptor-bleaching FRET on sections of HER2+ breast tumours of trastuzumab-treated patients (responders n = 41, non-responders n = 7), stained with primary antibodies and fluorescent secondary antibodies; Leica TCS SP5
[6] = target: human epidermal growth factor receptor 2 (HER2) (human (endogenous in SKBR3 and in patients' tumour tissue)) (UniProt P04626); assay: FRET or BRET; FRET on SKBR3-derived cells transiently transfected with the HER1 KO (CRISPR) plasmid, with or without EGF (100 ng/mL, 20 min)

binding [1]: binds
Substance: human epidermal growth factor receptor 2 (HER2) (from UniProt P04626 23-1255)

binding (HER2-AmCyan (human)): binds | binding (AmCyan-HER2 (human)): binds
Substance: HNMT-ZsYellow (from UniProt P50135 1-292) (enzyme)

binding [2]: binds | binding [3]: binds weakly | binding [4]: binds | binding [5]: binds
Substance: histamine N-methyltransferase (HNMT) (from UniProt P50135 1-292) (enzyme)
binding [6]: no binding (condition: HER1 knocked out (CRISPR))

binding [1]: binds | binding [4]: binds
Substance: HNMT overexpressed in SKBR3 cells (SK-HN) (from UniProt P50135 1-292) (enzyme)
